PubChem BioAssay AID504774 | Drosophila RNAi Screening Center, 2011

Assay: 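Fly genes whose loss alters survival after alkylation damage to DNA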 (primary screen)
System: Drosophila Kc167 cells
Knock-down reagent: long dsRNA against Drosophila genes, about 0.25 µg dsRNA per well
Timing: about 6 days: 3 days knock-down, then 3 days with or without MMS
Conditions: methyl methanesulphonate 0.004% (w/v) for 3 days after knock-down
Detection: 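ATP-dependent luminescence as a measure of live cells in MMS-exposed wells, quantile normalised within each plate, with replicate values also given as a mean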
Direction: mean viability with MMS and viability with MMS: higher = more surviving cells after MMS
In all, the deposit lists about 23,000 reagents; shown is a random part of those with a known target gene and a result. 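Values are quantile-normalised luminescence on an arbitrary scale; higher means more cells surviving MMS.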 Reagents against one gene are numbered here. A plus sign joins genes that one reagent is predicted to hit. Further read-outs or replicates are left out here.

{"gene":"Cpr (Cytochrome P450 reductase)","reagent":1,"mean viability with MMS":3.55e6,"viability with MMS, replicate 1":4.14e6}
{"gene":"Rab9Db + Rab9Fa","reagent":1,"mean viability with MMS":3.58e6,"viability with MMS, replicate 1":4.06e6}
{"gene":"CG8841","reagent":1,"mean viability with MMS":3.56e6,"viability with MMS, replicate 1":4.10e6}
{"gene":"CG31088","reagent":1,"mean viability with MMS":3.57e6,"viability with MMS, replicate 1":3.95e6}
{"gene":"C15","reagent":1,"mean viability with MMS":3.32e6,"viability with MMS, replicate 1":3.77e6}
{"gene":"C15","reagent":2,"mean viability with MMS":3.58e6,"viability with MMS, replicate 1":4.05e6}
{"gene":"ChAT (Choline acetyltransferase)","reagent":1,"mean viability with MMS":3.32e6,"viability with MMS, replicate 1":3.73e6}
{"gene":"ChAT (Choline acetyltransferase)","reagent":2,"mean viability with MMS":3.35e6,"viability with MMS, replicate 1":3.82e6}
{"gene":"ChAT (Choline acetyltransferase)","reagent":3,"mean viability with MMS":3.48e6,"viability with MMS, replicate 1":3.98e6}
{"gene":"CG11360","reagent":1,"mean viability with MMS":3.69e6,"viability with MMS, replicate 1":4.18e6}
{"gene":"CG11360","reagent":2,"mean viability with MMS":3.69e6,"viability with MMS, replicate 1":4.21e6}
{"gene":"CG6765","reagent":1,"mean viability with MMS":3.46e6,"viability with MMS, replicate 1":3.88e6}
{"gene":"CG32532","reagent":1,"mean viability with MMS":3.57e6,"viability with MMS, replicate 1":4.01e6}
{"gene":"CG32532","reagent":2,"mean viability with MMS":3.55e6,"viability with MMS, replicate 1":3.89e6}
{"gene":"CG32532","reagent":3,"mean viability with MMS":3.54e6,"viability with MMS, replicate 1":3.96e6}
{"gene":"CG32532","reagent":4,"mean viability with MMS":3.63e6,"viability with MMS, replicate 1":4.18e6}
{"gene":"Antdh (Antennal dehydrogenase)","reagent":1,"mean viability with MMS":3.62e6,"viability with MMS, replicate 1":4.16e6}
{"gene":"HmgD (High mobility group protein D)","reagent":1,"mean viability with MMS":2.98e6,"viability with MMS, replicate 1":3.54e6}
{"gene":"GCS1 (Glucosidase 1)","reagent":1,"mean viability with MMS":3.60e6,"viability with MMS, replicate 1":3.96e6}
{"gene":"Cdc2rk (Cdc2-related kinase)","reagent":1,"mean viability with MMS":3.53e6,"viability with MMS, replicate 1":4.05e6}
{"gene":"Inx5 (Innexin 5)","reagent":1,"mean viability with MMS":3.63e6,"viability with MMS, replicate 1":4.16e6}
{"gene":"CG4615","reagent":1,"mean viability with MMS":3.49e6,"viability with MMS, replicate 1":3.86e6}
{"gene":"CG4615","reagent":2,"mean viability with MMS":3.42e6,"viability with MMS, replicate 1":3.81e6}
{"gene":"Pof (Painting of fourth)","reagent":1,"mean viability with MMS":3.58e6,"viability with MMS, replicate 1":4.11e6}

Taken from above:
Under “mean viability with MMS”, ChAT (Choline acetyltransferase) #3 shows 3.48e6
For “viability with MMS, replicate 1”, Cpr (Cytochrome P450 reductase) shows 4.14e6
CG6765, mean viability with MMS → 3.46e6
For “viability with MMS, replicate 1”, C15 #1 reads 3.77e6

Next reagents follow.
{"gene":"Pdcd4 (Programmed cell death 4)","reagent":1,"mean viability with MMS":3.45e6,"viability with MMS, replicate 1":3.93e6}
{"gene":"CG11018","reagent":1,"mean viability with MMS":3.52e6,"viability with MMS, replicate 1":3.97e6}
{"gene":"E(spl)m6-BFM (Enhancer of split m6, Bearded family member)","reagent":1,"mean viability with MMS":3.66e6,"viability with MMS, replicate 1":4.15e6}
{"gene":"CLS (Cardiolipin synthase)","reagent":1,"mean viability with MMS":3.80e6,"viability with MMS, replicate 1":4.23e6}
{"gene":"ema (endosomal maturation defective)","reagent":1,"mean viability with MMS":3.34e6,"viability with MMS, replicate 1":3.68e6}
{"gene":"CG32448","reagent":1,"mean viability with MMS":3.47e6,"viability with MMS, replicate 1":3.91e6}
{"gene":"CG5853","reagent":1,"mean viability with MMS":3.51e6,"viability with MMS, replicate 1":4.01e6}
{"gene":"CG5853","reagent":2,"mean viability with MMS":3.70e6,"viability with MMS, replicate 1":4.37e6}
{"gene":"Cpsf5 (Cleavage and polyadenylation specific factor 5)","reagent":1,"mean viability with MMS":3.31e6,"viability with MMS, replicate 1":3.76e6}
{"gene":"CG7084","reagent":1,"mean viability with MMS":3.66e6,"viability with MMS, replicate 1":4.11e6}
{"gene":"CG34232","reagent":1,"mean viability with MMS":3.50e6,"viability with MMS, replicate 1":3.91e6}
{"gene":"CG15721","reagent":1,"mean viability with MMS":3.69e6,"viability with MMS, replicate 1":4.23e6}
{"gene":"hng2 (hinge2)","reagent":1,"mean viability with MMS":3.42e6,"viability with MMS, replicate 1":3.93e6}
{"gene":"CG2617","reagent":1,"mean viability with MMS":3.45e6,"viability with MMS, replicate 1":3.88e6}
{"gene":"HtrA2 (HTRA2-related serine protease)","reagent":1,"mean viability with MMS":3.70e6,"viability with MMS, replicate 1":4.19e6}
{"gene":"corto","reagent":1,"mean viability with MMS":3.35e6,"viability with MMS, replicate 1":3.72e6}
{"gene":"corto","reagent":2,"mean viability with MMS":3.54e6,"viability with MMS, replicate 1":4.01e6}
{"gene":"corto","reagent":3,"mean viability with MMS":3.65e6,"viability with MMS, replicate 1":4.13e6}
{"gene":"Obp69a (Odorant-binding protein 69a)","reagent":1,"mean viability with MMS":3.32e6,"viability with MMS, replicate 1":3.83e6}
{"gene":"BigH1 (Histone H1 variant BigH1)","reagent":1,"mean viability with MMS":3.49e6,"viability with MMS, replicate 1":4.05e6}
{"gene":"Rab19","reagent":1,"mean viability with MMS":3.89e6,"viability with MMS, replicate 1":4.13e6}
